From the supplement of paper PMC12823440, “Inhibitors supercharge kinase turnover through native proteolytic circuits” (Nature, 2025)
Counter-ions that a name gives are not always drawn. This is one part of the list. Hit calls seldom repeat between salt and free forms of one compound.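 Kinases, fused to nanoluciferase, were expressed in K562 cells; luminescence was measured every 4 h from 2 to 18 h as percent of control (DMSO = 100%, positive control = 0%). A time point is decreased if signal falls significantly (2 sigma). Hits were called by the authors by a rule that is not shown; the count of time points alone does not decide it.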

Chains of the proteins cited; added tags and fusions are not shown. Lines headed by an entry give the natural chain unless they say otherwise; changes in a name come on top.
UniProt P21860, whole entry: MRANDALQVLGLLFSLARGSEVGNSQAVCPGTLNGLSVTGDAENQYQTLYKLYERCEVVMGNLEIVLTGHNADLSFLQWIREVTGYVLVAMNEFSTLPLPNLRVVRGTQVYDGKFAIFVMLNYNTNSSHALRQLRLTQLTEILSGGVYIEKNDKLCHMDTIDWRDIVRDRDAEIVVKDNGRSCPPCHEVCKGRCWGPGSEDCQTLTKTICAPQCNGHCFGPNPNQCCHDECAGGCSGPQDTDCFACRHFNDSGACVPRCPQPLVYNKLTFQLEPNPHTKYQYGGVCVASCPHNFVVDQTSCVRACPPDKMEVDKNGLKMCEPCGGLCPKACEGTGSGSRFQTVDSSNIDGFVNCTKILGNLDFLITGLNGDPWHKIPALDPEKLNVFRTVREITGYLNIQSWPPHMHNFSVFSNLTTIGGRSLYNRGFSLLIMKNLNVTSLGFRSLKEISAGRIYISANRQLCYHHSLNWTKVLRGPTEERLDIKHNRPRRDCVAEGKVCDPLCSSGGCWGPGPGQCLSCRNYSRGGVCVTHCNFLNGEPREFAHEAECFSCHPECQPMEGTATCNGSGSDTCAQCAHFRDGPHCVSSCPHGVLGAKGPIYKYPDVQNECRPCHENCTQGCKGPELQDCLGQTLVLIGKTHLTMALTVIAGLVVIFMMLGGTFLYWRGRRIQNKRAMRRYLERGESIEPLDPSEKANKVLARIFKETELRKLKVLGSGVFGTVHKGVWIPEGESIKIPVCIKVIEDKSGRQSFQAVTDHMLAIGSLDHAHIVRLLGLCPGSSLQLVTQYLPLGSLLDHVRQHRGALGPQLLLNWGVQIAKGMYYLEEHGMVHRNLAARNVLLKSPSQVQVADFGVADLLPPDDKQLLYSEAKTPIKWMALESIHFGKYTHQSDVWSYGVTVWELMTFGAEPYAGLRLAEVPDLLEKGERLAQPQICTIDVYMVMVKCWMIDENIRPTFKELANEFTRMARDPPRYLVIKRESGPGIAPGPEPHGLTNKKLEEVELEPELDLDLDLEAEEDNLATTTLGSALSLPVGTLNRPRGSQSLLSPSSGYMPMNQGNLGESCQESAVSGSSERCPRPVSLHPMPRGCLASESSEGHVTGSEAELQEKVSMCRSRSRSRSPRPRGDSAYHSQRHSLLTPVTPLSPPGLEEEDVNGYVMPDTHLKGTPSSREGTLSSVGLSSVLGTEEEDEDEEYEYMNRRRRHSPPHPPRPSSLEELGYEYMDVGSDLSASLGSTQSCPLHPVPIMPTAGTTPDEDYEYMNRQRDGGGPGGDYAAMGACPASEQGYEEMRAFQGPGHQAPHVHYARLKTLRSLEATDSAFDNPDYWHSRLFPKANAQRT
UniProt Q15303, whole entry R711C: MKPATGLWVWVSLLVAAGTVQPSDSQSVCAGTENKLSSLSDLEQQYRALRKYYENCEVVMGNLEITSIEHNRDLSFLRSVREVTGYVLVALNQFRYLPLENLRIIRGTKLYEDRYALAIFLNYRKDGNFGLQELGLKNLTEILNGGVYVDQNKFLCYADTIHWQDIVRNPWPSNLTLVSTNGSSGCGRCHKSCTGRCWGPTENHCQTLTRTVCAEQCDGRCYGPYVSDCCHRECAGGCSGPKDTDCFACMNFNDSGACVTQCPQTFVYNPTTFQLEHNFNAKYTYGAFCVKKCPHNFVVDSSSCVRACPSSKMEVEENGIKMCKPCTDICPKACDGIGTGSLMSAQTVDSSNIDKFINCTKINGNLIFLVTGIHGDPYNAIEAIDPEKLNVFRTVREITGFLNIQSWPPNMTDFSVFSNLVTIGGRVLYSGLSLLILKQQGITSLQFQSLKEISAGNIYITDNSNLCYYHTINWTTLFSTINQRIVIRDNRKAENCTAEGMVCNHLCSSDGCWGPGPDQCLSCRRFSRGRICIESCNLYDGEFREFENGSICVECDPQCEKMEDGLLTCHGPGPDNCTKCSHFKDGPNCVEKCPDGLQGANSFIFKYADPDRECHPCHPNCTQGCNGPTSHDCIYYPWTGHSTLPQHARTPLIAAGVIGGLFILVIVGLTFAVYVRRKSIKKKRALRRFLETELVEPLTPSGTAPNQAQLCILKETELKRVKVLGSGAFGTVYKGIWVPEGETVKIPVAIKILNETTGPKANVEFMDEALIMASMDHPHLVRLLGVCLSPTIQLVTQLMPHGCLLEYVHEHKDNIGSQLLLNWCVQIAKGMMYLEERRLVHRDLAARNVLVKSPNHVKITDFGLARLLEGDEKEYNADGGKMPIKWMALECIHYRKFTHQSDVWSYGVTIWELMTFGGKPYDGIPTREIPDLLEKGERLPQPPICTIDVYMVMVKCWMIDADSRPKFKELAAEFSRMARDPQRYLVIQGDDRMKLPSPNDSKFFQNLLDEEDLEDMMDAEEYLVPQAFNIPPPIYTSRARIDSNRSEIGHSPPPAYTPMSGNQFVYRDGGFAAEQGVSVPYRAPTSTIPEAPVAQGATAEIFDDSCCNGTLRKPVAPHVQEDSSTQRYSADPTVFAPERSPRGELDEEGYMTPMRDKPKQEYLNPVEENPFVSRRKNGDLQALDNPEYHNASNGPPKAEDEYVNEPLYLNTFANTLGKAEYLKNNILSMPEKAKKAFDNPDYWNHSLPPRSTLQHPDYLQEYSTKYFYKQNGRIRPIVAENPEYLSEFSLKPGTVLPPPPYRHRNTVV
UniProt O75460: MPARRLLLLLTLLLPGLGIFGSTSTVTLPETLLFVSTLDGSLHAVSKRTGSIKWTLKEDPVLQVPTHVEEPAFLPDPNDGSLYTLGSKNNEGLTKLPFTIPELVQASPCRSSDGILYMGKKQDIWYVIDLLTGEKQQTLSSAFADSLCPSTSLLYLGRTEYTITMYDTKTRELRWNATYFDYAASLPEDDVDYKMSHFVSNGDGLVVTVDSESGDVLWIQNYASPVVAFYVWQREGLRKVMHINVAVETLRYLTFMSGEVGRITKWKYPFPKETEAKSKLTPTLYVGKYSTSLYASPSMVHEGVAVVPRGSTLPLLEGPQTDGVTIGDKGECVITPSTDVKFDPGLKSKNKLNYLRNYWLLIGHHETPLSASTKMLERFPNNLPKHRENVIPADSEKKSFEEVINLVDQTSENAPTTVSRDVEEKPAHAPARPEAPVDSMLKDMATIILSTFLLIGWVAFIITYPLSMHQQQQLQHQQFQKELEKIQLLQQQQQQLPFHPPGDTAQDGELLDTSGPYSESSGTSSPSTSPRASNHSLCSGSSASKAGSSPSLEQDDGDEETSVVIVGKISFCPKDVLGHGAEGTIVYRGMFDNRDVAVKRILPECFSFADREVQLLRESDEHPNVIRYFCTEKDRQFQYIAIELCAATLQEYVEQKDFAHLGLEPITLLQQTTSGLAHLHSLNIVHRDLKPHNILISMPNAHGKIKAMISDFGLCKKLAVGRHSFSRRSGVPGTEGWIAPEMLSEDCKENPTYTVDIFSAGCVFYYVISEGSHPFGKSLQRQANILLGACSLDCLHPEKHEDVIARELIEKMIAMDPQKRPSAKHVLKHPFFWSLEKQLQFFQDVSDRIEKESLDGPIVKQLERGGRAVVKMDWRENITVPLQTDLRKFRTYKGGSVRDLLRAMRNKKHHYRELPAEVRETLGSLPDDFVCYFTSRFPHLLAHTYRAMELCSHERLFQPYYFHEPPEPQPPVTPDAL
UniProt P11362, whole entry, looked up: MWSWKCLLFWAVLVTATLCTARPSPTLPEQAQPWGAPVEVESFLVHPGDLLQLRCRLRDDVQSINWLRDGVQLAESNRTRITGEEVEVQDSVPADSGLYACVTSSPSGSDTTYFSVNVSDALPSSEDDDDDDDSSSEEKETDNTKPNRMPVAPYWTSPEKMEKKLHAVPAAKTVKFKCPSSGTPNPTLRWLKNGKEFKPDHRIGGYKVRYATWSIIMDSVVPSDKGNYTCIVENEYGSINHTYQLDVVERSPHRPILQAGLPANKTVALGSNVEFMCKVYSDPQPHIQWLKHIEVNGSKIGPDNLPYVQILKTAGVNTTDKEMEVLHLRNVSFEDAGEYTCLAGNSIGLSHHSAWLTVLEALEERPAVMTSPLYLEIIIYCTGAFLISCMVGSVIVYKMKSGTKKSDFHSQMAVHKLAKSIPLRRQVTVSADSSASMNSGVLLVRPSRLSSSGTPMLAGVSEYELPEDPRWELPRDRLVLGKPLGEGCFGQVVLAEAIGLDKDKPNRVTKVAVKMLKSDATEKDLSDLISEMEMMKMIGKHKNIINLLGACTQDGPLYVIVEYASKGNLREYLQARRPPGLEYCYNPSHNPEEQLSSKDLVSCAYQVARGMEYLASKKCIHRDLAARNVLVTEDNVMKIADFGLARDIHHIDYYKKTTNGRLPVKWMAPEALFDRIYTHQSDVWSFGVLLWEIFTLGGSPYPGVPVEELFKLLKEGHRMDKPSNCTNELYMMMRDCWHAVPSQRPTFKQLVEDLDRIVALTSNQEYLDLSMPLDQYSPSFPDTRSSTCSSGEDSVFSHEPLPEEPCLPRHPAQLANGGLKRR
UniProt P22607, whole entry, looked up: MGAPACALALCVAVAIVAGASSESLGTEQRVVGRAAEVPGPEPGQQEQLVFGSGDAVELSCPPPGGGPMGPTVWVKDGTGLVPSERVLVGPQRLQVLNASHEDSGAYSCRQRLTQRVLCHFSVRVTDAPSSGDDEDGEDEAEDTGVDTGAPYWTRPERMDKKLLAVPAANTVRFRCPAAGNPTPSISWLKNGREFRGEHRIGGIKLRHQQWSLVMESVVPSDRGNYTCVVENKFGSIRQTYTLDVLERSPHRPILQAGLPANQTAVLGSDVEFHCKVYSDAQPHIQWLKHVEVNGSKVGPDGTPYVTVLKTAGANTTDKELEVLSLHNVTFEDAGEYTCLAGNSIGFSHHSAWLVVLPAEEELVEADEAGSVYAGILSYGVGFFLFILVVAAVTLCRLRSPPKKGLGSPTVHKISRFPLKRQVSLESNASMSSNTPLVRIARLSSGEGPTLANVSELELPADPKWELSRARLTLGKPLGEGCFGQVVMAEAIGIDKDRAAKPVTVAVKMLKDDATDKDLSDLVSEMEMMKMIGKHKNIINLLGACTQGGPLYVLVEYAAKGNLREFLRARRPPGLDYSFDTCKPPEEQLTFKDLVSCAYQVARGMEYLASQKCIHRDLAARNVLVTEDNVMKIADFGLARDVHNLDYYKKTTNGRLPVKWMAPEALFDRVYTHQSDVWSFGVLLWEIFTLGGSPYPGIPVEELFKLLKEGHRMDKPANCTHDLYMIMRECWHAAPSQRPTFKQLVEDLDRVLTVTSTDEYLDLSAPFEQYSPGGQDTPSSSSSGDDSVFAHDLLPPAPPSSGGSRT
UniProt P21802, whole entry, looked up: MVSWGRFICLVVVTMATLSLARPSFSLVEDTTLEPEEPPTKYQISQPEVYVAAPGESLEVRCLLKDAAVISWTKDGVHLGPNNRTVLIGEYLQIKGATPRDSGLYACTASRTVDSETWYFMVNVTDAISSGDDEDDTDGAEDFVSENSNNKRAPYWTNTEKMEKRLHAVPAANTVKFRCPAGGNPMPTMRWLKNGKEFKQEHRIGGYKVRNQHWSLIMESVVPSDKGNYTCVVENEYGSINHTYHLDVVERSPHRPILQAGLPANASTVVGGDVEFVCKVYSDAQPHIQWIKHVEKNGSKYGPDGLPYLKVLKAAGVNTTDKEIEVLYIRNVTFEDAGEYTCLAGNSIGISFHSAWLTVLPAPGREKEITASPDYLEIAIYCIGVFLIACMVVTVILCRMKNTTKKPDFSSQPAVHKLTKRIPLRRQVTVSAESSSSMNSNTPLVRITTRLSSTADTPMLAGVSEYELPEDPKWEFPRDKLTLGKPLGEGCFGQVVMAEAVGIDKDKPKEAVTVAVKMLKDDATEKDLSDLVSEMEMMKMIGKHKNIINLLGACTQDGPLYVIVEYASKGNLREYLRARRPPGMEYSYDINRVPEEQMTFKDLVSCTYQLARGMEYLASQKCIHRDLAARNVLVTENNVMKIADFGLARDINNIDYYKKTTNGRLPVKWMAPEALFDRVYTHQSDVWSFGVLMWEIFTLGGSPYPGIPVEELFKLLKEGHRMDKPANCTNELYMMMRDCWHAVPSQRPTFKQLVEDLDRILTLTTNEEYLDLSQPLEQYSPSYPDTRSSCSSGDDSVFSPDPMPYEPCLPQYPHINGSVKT

What was measured:
Assay in all cases: number of time points (of 5) at which kinase-Nluc abundance scored as decreased, DMSO-normalised (count); higher = more persistent destabilization
Settings in all cases: K562; 2-18 h
EPHA2 = EPHA2 (UniProt P29317)
ERBB3 = ERBB3 (UniProt P21860)
[1] = biological target: ERBB4_R711C (clone: ERBB4_mut) (UniProt Q15303)
ERN1 = ERN1 (UniProt O75460)
FGFR1 = FGFR1 (UniProt P11362)
FGFR3 = FGFR3 (UniProt P22607)
FGR = FGR (UniProt P09769)
EGFR_L861Q = EGFR_L861Q (UniProt P00533)
EGFR_T790M = EGFR_T790M (UniProt P00533)
FGFR2 = FGFR2 (UniProt P21802)

Measured: number of time points

COc1cc(Nc2ncc(F)c(Nc3ccc4c(n3)NC(=O)C(C)(C)O4)n2)cc(OC)c1OC (10 µM)
not listed: EGFR_L861Q | EGFR_T790M | FGFR2
0: all other assays above

O=C(CSC1=NCCN1)NC1CCCCCC1 [ICCB-19 (hydrochloride)] (2.5 µM)
0: all assays above

CC#CC(=O)Nc1ccc2ncnc(Nc3cccc(Br)c3)c2c1 (10 µM)
1: FGFR2
not listed: EGFR_L861Q | EGFR_T790M
0: all other assays above

C[C@@H]1CCN(C(=O)CC#N)C[C@@H]1N(C)c1ncnc2[nH]ccc12 [Tofacitinib (citrate)] (10 µM)
not listed: EGFR_L861Q | EGFR_T790M
0: all other assays above

Cn1cnc(Cn2ccc3ccc(CNCc4[nH]c5ccccc5c4[C@H]4NC(=O)c5ccc(O)cc54)cc32)c1 (10 µM)
0: all assays above

Cn1nccc1Nc1nccc(-c2ccn([C@H](CO)c3ccc(Cl)c(F)c3)c(=O)c2)n1 [Ravoxertinib hydrochloride] (10 µM)
0: all assays above

C[C@@]1(c2ncncc2F)NC(=O)c2cc(-c3cn[nH]c3)ccc21 (10 µM)
0: all assays above

Nc1nc(F)nc2c1ncn2[C@@H]1O[C@H](CO)[C@@H](O)[C@@H]1O [Fludarabine] (10 µM)
0: all assays above

O=C(Nc1ccc(CN2CCOCC2)cc1)c1ccc(-c2cccc(Cl)c2)o1 (10 µM)
0: all assays above

Cc1ccccc1-n1c([C@H](C)Nc2nc(N)nc3nc[nH]c23)nc2cccc(C)c2c1=O [CAL-130 (Hydrochloride)] (10 µM)
0: all assays above

CN1CCN(c2cnc3c(C4CCN(C(=O)c5ccc(OC(F)(F)F)cc5N)CC4)ncnc3c2)CC1 (10 µM)
0: all assays above

Cc1nc2sccn2c(=O)c1CCN1CCC(=C(c2ccccc2)c2ccc(F)cc2)CC1 (10 µM)
0: all assays above

CC#CC(=O)N1CC[C@@H](n2c(=O)n(-c3ccc(Oc4ccccc4)cc3)c3c(N)ncnc32)C1 [Tirabrutinib] (10 µM)
0: all assays above

FC(F)(F)c1ccc(CNc2ccc(Cc3c[nH]c4ncccc34)cn2)cc1 (10 µM)
0: all assays above

S=C(SSC(=S)N1CCOCC1)N1CCOCC1 (10 µM)
3: EGFR_L861Q | FGFR2
1: [1] | FGR
0: all other assays above

Cc1c(-c2c(F)cc(C(N)=O)c3[nH]c4c(c23)CC[C@H](C(C)(C)O)C4)cccc1-n1c(=O)c2cccc(F)c2n(C)c1=O (2.5 µM)
0: all assays above

C[C@@H]1CCN(C(=O)CC#N)C[C@@H]1N(C)c1ncnc2[nH]ccc12 [Tofacitinib] (10 µM)
not listed: EGFR_L861Q | EGFR_T790M
0: all other assays above

CC(=O)NC1CC(n2cnc(NC(=O)Cc3ccc4ccccc4c3)c2)C1 (centres undefined) (10 µM)
0: all assays above

COc1cc(Nc2ncc(F)c(Nc3ccc4c(n3)NC(=O)C(C)(C)O4)n2)cc(OC)c1OC [R406 (free base)] (10 µM)
not listed: EGFR_L861Q | EGFR_T790M | FGFR2
0: all other assays above

C=CC(=O)Nc1cccc(Nc2nc(Nc3ccc(N4CCN(C(C)=O)CC4)cc3OC)ncc2C(F)(F)F)c1 [Rociletinib] (10 µM)
4: [1]
1: ERBB3
not listed: EGFR_T790M
0: all other assays above

COc1cc2ncnc(Nc3ccc(Cl)cc3F)c2cc1OC (10 µM)
0: all assays above

O=C1NC(=O)/C(=C/c2ccc3nccnc3c2)S1 (10 µM)
0: all assays above

NC(=O)c1ccc(-c2nc(-c3ccc4c(c3)OCCO4)c(-c3ccccn3)[nH]2)cc1 (10 µM)
0: all assays above

C[C@H](c1ccnc(Nc2nc3ccc(-c4cc(N(C)C)ncn4)cc3[nH]2)c1)N1CCN(C(=O)CC(F)(F)F)CC1 (2.5 µM)
0: all assays above

C[C@]1(O)CCN(c2nc(N3C[C@H](O)[C@@H](O)C3)cc(C(F)(F)F)c2C#N)C1 (10 µM)
0: all assays above

Cc1ccc2nc(NCCN)c3ncc(C)n3c2c1 (2.5 µM)
not listed: EGFR_L861Q
0: all other assays above

Cc1cccc(Oc2cnc(=O)[nH]c2)c1 [Tolimidone] (10 µM)
0: all assays above

NCCNS(=O)(=O)c1cccc2c(Cl)cccc12 [A-3 (hydrochloride)] (10 µM)
0: all assays above

C=CC(=O)Nc1cccc(Nc2nc(Nc3ccc(N4CCN(C(C)=O)CC4)cc3OC)ncc2C(F)(F)F)c1 [Rociletinib hydrobromide] (10 µM)
4: [1]
0: all other assays above

O=C(NCCN1CCCC1)c1cc(-c2ccc(CN3CCOCC3)cc2)nc2ccc(F)cc12 (10 µM)
0: all assays above

COc1cc2c(N3CCN(C(=O)Nc4ccc(OC(C)C)cc4)CC3)ncnc2cc1OCCCN1CCCCC1 [Tandutinib] (10 µM)
not listed: EGFR_L861Q | EGFR_T790M
0: all other assays above

CNc1nc(Nc2ccc(C(=O)N3CCOCC3)cc2OC)nc2[nH]cc(Cl)c12 (2.5 µM)
0: all assays above

OCCn1cc(-c2ccc3c(c2)CC/C3=N\O)c(-c2ccncc2)n1 (10 µM)
0: all assays above
